Patent US20060148732A1, “Inhibition of NF-kappaB by triterpene compositions” (priority 2000, published 2006)
Marks after values point to notes of the source that are not given here.

Experiments:
Acacia victoriae = assay: Multiple shoot induction from shoot tips; conditions: MS medium; 1.3 mg/L
[1] = test system: Acacia victoriae hairy roots; assay: Growth of hairy root cultures in liquid medium; conditions: for Fresh weight after 4 weeks / Fold increase: initial F.W. 300 mg; for Fold increase: 4 weeks
[2] = Carbon source 2% W/V in MS medium

Compound: c1ccc(CNc2ncnc3[nH]cnc23)cc1 [BA]
- shoots/culture (average) (Acacia victoriae): 3.94

Compound: C=C1C[C@]23C[C@@]1(O)CC[C@H]2[C@@]12C=C[C@H](O)[C@@](C)(C(=O)O1)[C@H]2[C@@H]3C(=O)O [GA3, gibberellic acid]
- growth of hairy roots ([1]; 0.1, 0.5 and 1.0 mg/L in MS medium): did not enhance the growth
- Fresh weight after 4 weeks ([1]; GA3 0.1 mg/L): 4.732 ± 0.086 gm
- Fold increase ([1]; GA3 0.1 mg/L): 15.77
- Fresh weight after 4 weeks ([1]; GA3 0.5 mg/L): 4.634 ± 0.088 gm
- Fold increase ([1]; GA3 0.5 mg/L): 15.44
- Fresh weight after 4 weeks ([1]; GA3 1 mg/L): 4.310 ± 0.344 gm
- Fold increase ([1]; GA3 1 mg/L): 15.44

Compound: OC[C@H]1O[C@@](CO)(O[C@H]2O[C@H](CO)[C@@H](O)[C@H](O)[C@H]2O)[C@@H](O)[C@@H]1O [sucrose]
- growth of hairy roots ([1]; 2% (w/v) carbon source in MS medium): 24.52 fold
- Fresh weight after 4 weeks [1, 2]: 7.356 ± 0.543^c gm
- Fold increase [1, 2]: 24.52
